Reference: paper PMC12598764
Results are given in words; binding and its absence hold for the method and conditions named. For part of these data: In cells and extracts the contact can be indirect. Some binding calls cover weakened binding; strength is not graded here. Where a sequence is shown, tags or fusion partners need not be part of it.

Key:
[1] = target: T1, HIGH OSMOTIC STRESS GENE EXPRESSION 5 (HOS5), yeast two-hybrid fusion (Arabidopsis thaliana) (UniProt Q8W4B1); assay: two-hybrid; LexA-inducible system, pGilda and pB42AD constructs co-transformed in yeast EGY48; induction on galactose and raffinose plates; X-gal colorimetric assay (blue colonies); empty vectors as negative controls
T1 sequence: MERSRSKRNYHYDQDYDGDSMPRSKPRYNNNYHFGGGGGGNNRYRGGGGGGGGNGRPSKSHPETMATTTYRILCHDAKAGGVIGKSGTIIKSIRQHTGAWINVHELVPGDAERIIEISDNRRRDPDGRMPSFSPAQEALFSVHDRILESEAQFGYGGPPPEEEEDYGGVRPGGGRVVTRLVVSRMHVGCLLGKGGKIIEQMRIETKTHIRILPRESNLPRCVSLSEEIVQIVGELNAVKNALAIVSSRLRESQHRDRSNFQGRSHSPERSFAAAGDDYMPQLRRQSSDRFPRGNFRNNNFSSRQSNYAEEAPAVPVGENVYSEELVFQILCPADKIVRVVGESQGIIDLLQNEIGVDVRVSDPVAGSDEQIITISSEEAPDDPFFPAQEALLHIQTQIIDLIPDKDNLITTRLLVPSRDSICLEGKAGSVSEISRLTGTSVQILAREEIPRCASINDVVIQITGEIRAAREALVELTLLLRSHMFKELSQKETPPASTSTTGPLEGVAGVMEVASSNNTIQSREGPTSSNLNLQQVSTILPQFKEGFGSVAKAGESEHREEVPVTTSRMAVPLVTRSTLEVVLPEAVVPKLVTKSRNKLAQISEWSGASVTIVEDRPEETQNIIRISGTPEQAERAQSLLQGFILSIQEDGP

[2] = target: T2, HIGH OSMOTIC STRESS GENE EXPRESSION 5 (HOS5), BiFC fusion to a half of YFP (Arabidopsis thaliana) (UniProt Q8W4B1); assay: split reporter; BiFC with YFPct and YFPnt fusions (35S promoter) in agroinfiltrated Nicotiana benthamiana leaf cells; YFP fluorescence seen 72 h after inoculation by epifluorescence microscopy; signal in nuclei; negative control YFPct construct with empty YFPnt
T2 sequence: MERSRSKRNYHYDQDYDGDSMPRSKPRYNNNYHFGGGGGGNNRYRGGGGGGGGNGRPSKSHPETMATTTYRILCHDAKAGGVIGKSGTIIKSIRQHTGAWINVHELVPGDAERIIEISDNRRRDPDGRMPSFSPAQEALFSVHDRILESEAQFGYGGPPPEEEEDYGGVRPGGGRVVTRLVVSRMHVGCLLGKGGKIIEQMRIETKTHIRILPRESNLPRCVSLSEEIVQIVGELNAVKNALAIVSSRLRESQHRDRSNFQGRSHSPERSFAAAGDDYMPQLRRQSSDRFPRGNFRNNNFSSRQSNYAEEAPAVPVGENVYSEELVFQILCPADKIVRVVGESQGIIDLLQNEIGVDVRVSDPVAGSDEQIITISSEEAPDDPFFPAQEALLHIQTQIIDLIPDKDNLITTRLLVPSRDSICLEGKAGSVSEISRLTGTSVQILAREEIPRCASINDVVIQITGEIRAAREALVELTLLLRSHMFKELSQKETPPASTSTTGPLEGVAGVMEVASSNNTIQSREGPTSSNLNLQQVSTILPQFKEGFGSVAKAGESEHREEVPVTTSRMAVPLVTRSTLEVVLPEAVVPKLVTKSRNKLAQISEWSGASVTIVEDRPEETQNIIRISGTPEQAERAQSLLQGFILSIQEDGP

B1: FLOWERING LOCUS K (FLK), yeast two-hybrid fusion (protein, UniProt Q9SR13 1-577)
chain: MAEAEDQQNFVAHNGDQVPDQGSDELHNGLPYQVHDETLVHQPYEVEDPILEPQQYEVPDPTLEPQQYEVPDQTLEPQQYEVDDQLEYHQYQLQDQANEDVQDHSQDDLQYQPQNQEQFQLQDEAHDQAQYQAQGDVQDHNGDEVQDKVEDEEGIPEHLESLQKSEPEEDATVGGEEKRWPGWPGETVFRMLVPAQKVGSIIGRKGDVIKKIVEETRARIKILDGPPGTTERAVMVSGKEEPESSLPPSMDGLLRVHMRIVDGLDGEASQAPPPSKVSTRLLVPASQAGSLIGKQGGTVKAIQEASACIVRVLGSEDLPVFALQDDRVVEVVGEPTSVHRALELIASHLRKFLVDRSIIPFFENQMQKPTRQMDHMPPPHQSWGPPQGHAPSVGGGGYGHNPPPYMQPPPRHDSYYPPPEMRQPPMEKQPHQGISAYGREPPMNVHVSSAPPMVAQQVTQQMQIPLSYADAVIGTSGSNISYTRRLSGATVTIQETRGVPGEMTVEVSGTGSQVQTAVQLIQNFMAEAGAPAPAQPQTVAPEQQGYNPYATHGSVYAAAPTNPPGGYATDYSSGYGY
binding [1]: binds

B2: CPL1, yeast two-hybrid fusion (protein, UniProt Q5YDB6 1-967)
chain: MYSNNRVEVFHGDGRLGELEIYPSRELNQQQDDVMKQRKKKQREVMELAKMGIRISHFSQSGERCPPLAILTTISSCGLCFKLEASPSPAQESLSLFYSSCLRDNKTAVMLLGGEELHLVAMYSENIKNDRPCFWAFSVAPGIYDSCLVMLNLRCLGIVFDLDETLVVANTMRSFEDKIDGFQRRINNEMDPQRLAVIVAEMKRYQDDKNLLKQYIESDQVVENGEVIKVQSEIVPALSDNHQPLVRPLIRLQEKNIILTRINPMIRDTSVLVRMRPSWEELRSYLTAKGRKRFEVYVCTMAERDYALEMWRLLDPEGNLINTNDLLARIVCVKSGFKKSLFNVFLDGTCHPKMALVIDDRLKVWDEKDQPRVHVVPAFAPYYSPQAEAAATPVLCVARNVACGVRGGFFRDFDDSLLPRIAEISYENDAEDIPSPPDVSHYLVSEDDTSGLNGNKDPLSFDGMADTEVERRLKEAISASSAVLPAANIDPRIAAPVQFPMASASSVSVPVPVQVVQQAIQPSAMAFPSIPFQQPQQPTSIAKHLVPSEPSLQSSPAREEGEVPESELDPDTRRRLLILQHGQDTRDPAPSEPSFPQRPPVQAPPSHVQSRNGWFPVEEEMDPAQIRRAVSKEYPLDSEMIHMEKHRPRHPSFFSKIDNSTQSDRMLHENRRPPKESLRRDEQLRSNNNLPDSHPFYGEDASWNQSSSRNSDLDFLPERSVSATETSADVLHGIAIKCGAKVEYKPSLVSSTDLRFSVEAWLSNQKIGEGIGKSRREALHKAAEASIQNLADGYMRANGDPGPSHRDATPFTNENISMGNANALNNQPFARDETALPVSSRPTDPRLEGSMRHTGSITALRELCASEGLEMAFQSQRQLPSDMVHRDELHAQVEIDGRVVGEGVGSTWDEARMQAAERALSSVRSMLGQPLHKRQGSPRSFGGMSNKRLKPDFQRSLQRMPSSGRYS
binding [1]: binds

B3: FLOWERING LOCUS K (FLK), BiFC fusion to a half of YFP (protein, UniProt Q9SR13 1-577)
chain: MAEAEDQQNFVAHNGDQVPDQGSDELHNGLPYQVHDETLVHQPYEVEDPILEPQQYEVPDPTLEPQQYEVPDQTLEPQQYEVDDQLEYHQYQLQDQANEDVQDHSQDDLQYQPQNQEQFQLQDEAHDQAQYQAQGDVQDHNGDEVQDKVEDEEGIPEHLESLQKSEPEEDATVGGEEKRWPGWPGETVFRMLVPAQKVGSIIGRKGDVIKKIVEETRARIKILDGPPGTTERAVMVSGKEEPESSLPPSMDGLLRVHMRIVDGLDGEASQAPPPSKVSTRLLVPASQAGSLIGKQGGTVKAIQEASACIVRVLGSEDLPVFALQDDRVVEVVGEPTSVHRALELIASHLRKFLVDRSIIPFFENQMQKPTRQMDHMPPPHQSWGPPQGHAPSVGGGGYGHNPPPYMQPPPRHDSYYPPPEMRQPPMEKQPHQGISAYGREPPMNVHVSSAPPMVAQQVTQQMQIPLSYADAVIGTSGSNISYTRRLSGATVTIQETRGVPGEMTVEVSGTGSQVQTAVQLIQNFMAEAGAPAPAQPQTVAPEQQGYNPYATHGSVYAAAPTNPPGGYATDYSSGYGY
binding [2]: binds
